Laboratory results taken from PubChem BioAssay AID256 (DTP/NCI, 2004).
The list is a part of this screen's results and no random one: it is rich in T/C values a quarter to a half above the control, in often repeated tests (any T/C) and in doses without a T/C. Other doses and runs of a compound stand elsewhere. T/C is the treated group as % of the vehicle group. Some doses have a count of surviving animals in place of a T/C: the source files T/C as zero there, which appears to mark a toxic dose or a test without result, not a measured value. Some survivor counts are full or nearly so, which does not show that the dose was tolerated: the source hardly ever lists a survival T/C far under the control, and the zero likely stands for such cases as well. Counts of survivors are from the toxicity check (mostly the fifth day) where no day follows; animals may have died later. Schedule codes are those of the source, taken here to give the interval after Q, in days (D) or hours (H), and the number of doses after X. Some schedule codes hold Z or #, which are not explained here. For survival time, this PubChem deposit counts one and a half times the control or more as active, and values a quarter to a half above the control carry no call in these data; other NCI protocols may use other cut-offs. Signs of the kind (2×) say how often a value occurs here. Some entries hold several experiments; the values are given in rising order. Some T/C values carry the count of animals alive at the toxicity check (mostly the fifth day); where none is given, no animal had died by that day.

Tested on: CD2F1 mice, L1210 leukemia ip, survival T/C
Experiment: NCI In Vivo Anticancer Drug Screen. Data for tumor model L1210 Leukemia (intraperitoneal) in CD2F1 (CDF1) mice
Settings: T/C endpoint: mean survival time, higher T/C = longer survival
Outline: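 Antitumor effect is scored in animals hosting a serially transplanted tumor. Values compare compound-dosed animals against vehicle-only controls as a simple quotient.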

[1] = dose: 300.0 mg/kg/injection, schedule: Q01DX001 (ip), vehicle: saline
[2] = dose: 200.0 mg/kg/injection, schedule: Q01DX001 (ip), vehicle: saline
[3] = dose: 400.0 mg/kg/injection, schedule: Q01DX001 (ip), vehicle: saline
[4] = dose: 200.0 mg/kg/injection, schedule: Q04DX003 (ip), vehicle: saline
[5] = dose: 400.0 mg/kg/injection, schedule: Q04DX003 (ip), vehicle: saline
[6] = dose: 200.0 mg/kg/injection, schedule: Q01DX001 (ip), vehicle: saline with Tween-80
[7] = dose: 400.0 mg/kg/injection, schedule: Q01DX001 (ip), vehicle: saline with Tween-80
[8] = dose: 400.0 mg/kg/injection, schedule: Q04DX003 (ip), vehicle: saline with Tween-80

With `NSc1ccc([N+](=O)[O-])cc1` as the molecule, how does the survivor count (dose: 100.0 mg/kg/injection, schedule: Q01DX001 (ip), vehicle: other) read?
The survivor count was 1 of 6.

With `S=c1[nH]c2ccccc2[nH]c1=S` as the molecule, how does the survivor count (dose: 40.0 mg/kg/injection, schedule: Q01DX001 (ip), vehicle: Klucel (hydroxypropylcellulose) (HPC)) read?
The survivor count was 1 of 6.

Which results are given for `NNC(=O)c1cccc([N+](=O)[O-])c1`?
survivor count (dose: 150.0 mg/kg/injection, schedule: Q01DX001 (ip), vehicle: saline): 3 of 6; survivor count [1]: 0 of 6

Which survivor count (dose: 80.0 mg/kg/injection, schedule: Q01DX001 (ip), vehicle: saline) does the source give for `c1ccc2c(c1)[nH]c1c2cc[n+]2cc3c(cc12)CCCC3` here?
The survivor count was 0 of 6.

How did the survivor count [2] turn out when `Oc1cc(O)c(Cl)cc1Cl` was run?
Its survivor count is 3 of 6.

And the survivor count [3]?
Its survivor count is 0 of 6.

For `COC(=O)/C(C#N)=C(\C)CC(C)C`, which survivor count [1] is on record?
The survivor count was 2 of 6.

`CCOC1=NC(C)(C)CC(C)O1` (stereo unspecified) was tested. Which survivor count [4] did it give?
Its survivor count is 1 of 6.

What about the survivor count [5] of the same molecule?
Its survivor count is 0 of 6.

How did the survivor count (dose: 200.0 mg/kg/injection, schedule: Q01DX009 (ip), vehicle: other) turn out when `CCCCCCCC1SC(=S)NC1=O` (stereo unspecified) was run?
Its survivor count is 2 of 5.

With `O=c1c(Cl)c(C(Cl)(Cl)Cl)[nH]c2ccc([N+](=O)[O-])cc12` as the molecule, how does the survivor count (dose: 100.0 mg/kg/injection, schedule: Q01DX001 (ip), vehicle: saline with Tween-80) read?
Its survivor count is 1 of 6.

What about the survivor count [6] of the same molecule?
The survivor count was 0 of 6.

And the survivor count [7]?
The survivor count was 0 of 6.

With `C=CCCCCCCCCC(=O)NC(C)COC` (stereo unspecified) as the molecule, how does the survivor count [7] read?
Its survivor count is 0 of 6.

`O=C(Nc1ccc(Nc2ccccc2)cc1)Nc1cc([N+](=O)[O-])ccc1Cl` was tested. Which survivor count [6] did it give?
The survivor count was 6 of 6.

What does the source list for `CCOC(=O)CC/C=C/Cc1c(OC)c(C)c2c(c1OC(=O)NCc1ccc(N(CC)CC)cc1)C(=O)OC2`?
T/C (dose: 200.0 mg/kg/injection, schedule: Q04DX002 (ip), vehicle: saline with Tween-80): 125 % of control (2×); T/C (dose: 400.0 mg/kg/injection, schedule: Q04DX002 (ip), vehicle: saline with Tween-80): 125 % of control (2×)

Which T/C (dose: 12.5 mg/kg/injection, schedule: Q01DX009 (ip), vehicle: saline) does the source give for `OCC1OC(n2cnc3cncnc32)C(O)C1O` (stereo unspecified) here?
The T/C was 127 % of control.

How did the survivor count [7] turn out when `CCCCCCCCCCCCC/C=N/NC(=O)c1ccc[n+](C)c1` was run?
Its survivor count is 3 of 6.

How did the survivor count (dose: 18.75 mg/kg/injection, schedule: Q01DX001 (ip), vehicle: saline with Tween-80) turn out when `CS(=O)(=O)C(Br)(Br)S(C)(=O)=O` was run?
Its survivor count is 2 of 6.

And the survivor count (dose: 75.0 mg/kg/injection, schedule: Q01DX001 (ip), vehicle: saline with Tween-80)?
The survivor count was 0 of 6.

And the survivor count (dose: 150.0 mg/kg/injection, schedule: Q01DX001 (ip), vehicle: saline with Tween-80)?
Its survivor count is 0 of 6.

What about the survivor count (dose: 300.0 mg/kg/injection, schedule: Q01DX001 (ip), vehicle: saline with Tween-80) of the same molecule?
The survivor count was 0 of 6.

How did the survivor count (dose: 5.0 mg/kg/injection, schedule: Q04DX003 (ip), vehicle: saline with Tween-80) turn out when `CN1CCC(CNC(=O)CCCCCCCCC(=O)NCC2(c3ccccc3)CCN(C)CC2)(c2ccccc2)CC1` was run?
Its survivor count is 6 of 6.

For `O=C1C(N2CC2)=C(N2CCCC(O)C2)C(=O)C(N2CC2)=C1N1CCCC(O)C1` (stereo unspecified), which T/C (dose: 1.0 mg/kg/injection, schedule: Q01DX009 (ip), vehicle: saline) is on record?
The T/C was 134 and 143 % of control.

What about the T/C (dose: 4.0 mg/kg/injection, schedule: Q01DX009 (ip), vehicle: saline) of the same molecule?
Its T/C is 141 and 145 % of control.

With `CN(C)C1C(CO)C(CO)C1(C)C` (stereo unspecified) as the molecule, how does the survivor count (dose: 800.0 mg/kg/injection, schedule: Q01DX001 (ip), vehicle: saline with Tween-80) read?
Its survivor count is 0 of 10.

For `CCC(C)CCC/C=C/CC(=O)NC(CC(=O)O)C(=O)NC(C(=O)NC(CC(=O)O)C(=O)NCC(=O)NC(CC(=O)O)C(=O)NCC(=O)NC(C(=O)NC(C(=O)N1CCCC1C(=O)NC(C)C1NC(=O)C2CCCCN2C1=O)C(C)C)C(C)N)C(C)C(=O)O` (stereo unspecified), which survivor count (dose: 400.0 mg/kg/injection, schedule: Q01DX009 (ip), vehicle: saline + alcohol) is on record?
The survivor count was 1 of 6.

How did the survivor count (dose: 300.0 mg/kg/injection, schedule: Q01DX001 (ip), vehicle: other) turn out when `COC1C(O)C(C)OC(O[C@@H]2C[C@H]3CC[C@@H]4[C@H](CC[C@]5(C)[C@@H](C6=CC(=O)OC6)CC[C@]45O)[C@@]3(C)[C@H](O)C2)C1O` (stereo partly specified) was run?
Its survivor count is 0 of 6.

With `COc1ccc(NC2=C(C)C(=O)C3=C(C2=O)[C@H](COC(N)=O)[C@]2(OC)[C@@H]4N[C@@H]4CN32)cc1` as the molecule, how does the T/C (dose: 12.0 mg/kg/injection, schedule: Q01DX001 (ip), vehicle: water) read?
Its T/C is 134 % of control.

What about the T/C (dose: 24.0 mg/kg/injection, schedule: Q01DX001 (ip), vehicle: water) of the same molecule?
The T/C was 135 % of control.

Which survivor count [8] does the source give for `CCC(CO)C(C)C` (stereo unspecified) here?
Its survivor count is 0 of 6.

`CN(CC1CCCC1)C1CCCCC1` was tested. Which survivor count [2] did it give?
Its survivor count is 1 of 6.

What about the survivor count [3] of the same molecule?
The survivor count was 0 of 6.

How did the survivor count (dose: 100.0 mg/kg/injection, schedule: Q04DX003 (ip), vehicle: other) turn out when `FC(F)(F)/C([S-])=C(/[S-])C(F)(F)F.FC(F)(F)/C([S-])=C(/[S-])C(F)(F)F.FC(F)(F)/C([S-])=C(/[S-])C(F)(F)F.FC(F)(F)/C([S-])=C(/[S-])C(F)(F)F.[Co+3].[Co+3]` was run?
Its survivor count is 6 of 6.

And the survivor count (dose: 200.0 mg/kg/injection, schedule: Q04DX003 (ip), vehicle: other)?
Its survivor count is 1 of 6.

And the survivor count (dose: 400.0 mg/kg/injection, schedule: Q04DX003 (ip), vehicle: other)?
Its survivor count is 0 of 6.

For `CN(C)c1ccc(/C=C2\C=Nc3ccccc32)cc1`, which survivor count (dose: 50.0 mg/kg/injection, schedule: Q04DX003 (ip), vehicle: saline with Tween-80) is on record?
The survivor count was 3 of 3.

How did the T/C (dose: 400.0 mg/kg/injection, schedule: Q01DX009 (ip), vehicle: Klucel (hydroxypropylcellulose) (HPC)) turn out when `CCCC(=O)Nc1ccn(C2OC(COC(=O)CCC)C(OC(=O)CCC)C2OC(=O)CCC)c(=O)n1` (stereo unspecified) was run?
The T/C was 132 % of control.

`COc1cccc2c1C(=O)c1c(O)c3c(c(O)c1C2=O)C[C@@](O)(/C(C)=N\NC(=O)CO)C[C@@H]3OC1CC(N)C(O)C(C)O1` (stereo partly specified) was tested. Which T/C (dose: 5.56 mg/kg/injection, schedule: Q04DX003 (ip), vehicle: saline) did it give?
The T/C was 137 % of control [5 of 6 alive].

And the T/C (dose: 6.25 mg/kg/injection, schedule: Q01DX009 (ip), vehicle: saline)?
Its T/C is 136 % of control.

And the T/C (dose: 6.25 mg/kg/injection, schedule: Q01DX009 (ip), vehicle: water)?
Its T/C is 130 % of control.

What about the T/C (dose: 8.0 mg/kg/injection, schedule: Q04DX003 (ip), vehicle: saline with Tween-80) of the same molecule?
The T/C was 125 % of control.

What about the T/C (dose: 12.5 mg/kg/injection, schedule: Q04DX003 (ip), vehicle: saline) of the same molecule?
Its T/C is 136 % of control.

What about the T/C (dose: 18.7 mg/kg/injection, schedule: Q04DX003 (ip), vehicle: saline) of the same molecule?
The T/C was 139 % of control.

And the survivor count (dose: 25.0 mg/kg/injection, schedule: Q01DX009 (ip), vehicle: saline)?
Its survivor count is 5 of 6.

What about the survivor count (dose: 25.0 mg/kg/injection, schedule: Q01DX009 (ip), vehicle: water) of the same molecule?
The survivor count was 0 of 6.

And the survivor count (dose: 50.0 mg/kg/injection, schedule: Q01DX009 (ip), vehicle: saline)?
The survivor count was 1 of 6.

And the survivor count (dose: 100.0 mg/kg/injection, schedule: Q01DX009 (ip), vehicle: saline)?
Its survivor count is 0 of 6.

And the survivor count (dose: 100.0 mg/kg/injection, schedule: Q04DX003 (ip), vehicle: saline)?
The survivor count was 4 of 6.

And the survivor count [4]?
Its survivor count is 0 of 6.

What about the survivor count [5] of the same molecule?
The survivor count was 1 of 6.

Which survivor count (dose: 10.0 mg/kg/injection, schedule: Q01DX Z (ip), vehicle: saline) does the source give for `COC(=O)/C=C/N(CCF)CCF` here?
Its survivor count is 0 of 6.

Which survivor count (dose: 200.0 mg/kg/injection, schedule: Q04DX003 (ip), vehicle: saline with Tween-80) does the source give for `CC(C)Cc1ccc(OC(=O)Nc2ccc(Cl)cc2)cc1` here?
The survivor count was 6 of 6.

What about the survivor count [8] of the same molecule?
Its survivor count is 6 of 6.
